# According to US7226746B1, “Method for screening for anti-amyloidogenic properties and method for treatment of neurodegenerative disease” (The Regents of the University of California, priority 1998, dated 2007):
# For at least one compound, name, drawing or mass did not settle the structure.
# Target: T1, human recombinant NACP/α-synuclein 140 (Homo sapiens, UniProt P37840)
# T1 construct: which encodes full length NACP/α-synuclein 140; 6xHis (cleaved yes); made in house; host or cells: E. coli DH5α
# Experiment: Ferric ion-induced aggregation of NACP/α-synuclein 140, immunoblotting analysis
# Type: biochemical
# Conditions: 100 μM ferric ion plus 10 mM deferoxamine
# Experimental: The cells are harvested and re-suspended in 50 mM Tris-HCl, pH 8.5, containing protease inhibitors. Following sonication and centrifugation of the re-suspension, the supernatant is applied to a Ni-NTA column and eluted with 20 mM Tris-HCl, pH 8.5, containing 100 mM KCl, 100 mM imidazole, […] v/v glycerol and 10 mM β-mercaptoethanol. The eluted fusion protein is dialyzed against 50 mM Tris-HCl, pH 8.5, cleaved with recombinant TEV protease and again applied to a Ni-NTA column. The recombinant NACP/α-synuclein is isolated in the flow through fractions, pooled and stored at −20° C. until use.
# Prior to experimentation, each of the recombinant proteins need to be desalted by way of passage through PD 10 columns (Pharmacia, Piscataway, N.J.) in water and then adjusted to a final concentration of 5 μM. NACP/α-synuclein protein (1 μl) is incubated in a total volume of 20 μl of buffer containing 20 mM Tris-HCl, pH 7.4. To perform the immuno-blotting analysis, each sample is resolved by SDS-PAGE (15%) and blotted onto nitrocellulose membrane (Schleicher & Schuell, Keene, N.H.). The blotted membrane is blocked with Tris-Buffered saline (TBS; 20 mM Tris-HCl, pH 7.5 and 150 mM NaCl) containing 3% BSA, followed by incubation with anti-C-terminal rabbit polyclonal antibody (1:1000) in TBS containing 1% BSA. […]
smiles,measurement,value
CC(=O)N(O)CCCCCNC(=O)CCC(=O)N(O)CCCCCNC(=O)CCC(=O)N(O)CCCCCN [deferoxamine],inhibition of ferric ion-induced aggregation of NACP/α-synuclein 140 by chelation,partially effective in inhibiting aggregation
